Drawing on PubChem BioAssay AID977622 (Broad Institute, 2014), this text covers activity change for 56 compounds.

Some of the results follow. Further columns of the screen follow, without active or inactive calls.

Test [1] is described as follows: wild-type E. coli growth inhibition versus h38 humanized strain – h38 mutant RFP, wild-type GFP, cherry-pick, dose response (AID 977622). The settings on record: E. coli mixed culture, 24 h, total growth OD600 at 50 uM.
Test [2] deals with E. coli h38 humanized mutant ribosome RFP fluorescence, mixed culture, 24 h. The test is described as above. The settings on record: h38 mutant RFP at 50 uM.

`CCc1c(N=O)c(-c2ccccc2)n(O)[n+]1[O-]`: the activity change in test [1] is -9.06%; in test [2], -25%.
On to `Cc1nnn(C23C[C@@H]4C[C@@H](CC(C(=O)N5CCN(c6ccccc6)CC5)(C4)C2)C3)n1`, for which the activity change in test [1] was -45.4%; in test [2] it was -13.2%.
In the case of `Cc1cc(C(=O)c2ccc3ccccc3c2)c(C)o1`, the activity change was -26.2% in test [1] and 0.982% in test [2].
Regarding `CCOc1ccc(S(=O)(=O)N(C)c2ccc(OCC(=O)NCc3cccnc3)cc2)cc1`, the activity change in test [1] is -21%; in test [2] it was -6.93%.
`COc1ccc(S(=O)(=O)N(C)C)cc1NC(=O)c1ccc2c(c1)NC(=O)C(C)S2` (configuration not stated): the results for the activity change in test [1] and in test [2] were -31.7% and -14.8%, respectively.
As for `CC(=O)OC(COc1cccc(C)c1)Cn1cnc2ccccc21` (configuration not stated), the activity change in test [1] is -47.6%.
In the case of `CCCN(CC(=O)Nc1ccccc1C)C(=O)c1cccc(S(=O)(=O)N2CCc3ccccc3C2)c1`, the activity change was -44.1% in test [1] and -1.68% in test [2].
As for `COc1ccc(CC(=O)Oc2ccc(C)cc2C)cc1`, the figures for the activity change in test [1] and in test [2] were -42.1% and -18.5%, respectively.
On the same counts, the results for `CCOc1ccc(N(CC(=O)NC(C(C)C)C(C)C)S(=O)(=O)c2ccc(OC)c(OC)c2)cc1` are -47.8% and -32.8%.
On the same counts, the results for `Cc1ccc(S(=O)(=O)N2CC[C@H]3[C@H](CO)Nc4ccc(Br)cc4[C@H]32)cc1` are -65.4% and -2.04%.
`O=C(C[n+]1cc(-c2ccc(Cl)c(Cl)c2)n2c1CCC2)OCc1ccccc1`: the activity change in test [1] was -6.69%; in test [2], 9.12%.
With `C=CCN(c1ccccc1)S(=O)(=O)c1cccc2cccnc12`, the values for the activity change in test [1] and in test [2] were -30.7% and -16.6%, respectively.
With `Cc1cc(C(=O)Nc2cccc3c2O[C@H](CN(C)S(=O)(=O)c2ccc(Cl)cc2)[C@H](C)CN([C@@H](C)CO)C3=O)n(C)n1`, in test [2], the activity change was -16.8%.
`Cc1ccc(CSCC(=O)N(C)CC(=O)Nc2ccccc2Cl)cc1`: the activity change in test [1] is -52.3%; in test [2] it was -2.78%.
For the compound `O=C(O)c1cc(-c2ccc(-c3ccc(F)cc3)o2)nc2ccccc12`, the activity change in test [1] is -82.4%; in test [2], -44.3%.
As to `c1ccc(CN2CCN(C3CCCSc4ccccc43)CC2)cc1` (configuration not stated), the activity change in test [1] was -39.3%.
On to `COc1cccc(NC(=O)COC(=O)Cc2ccc(Cl)cc2)c1`, for which the activity change was -23.8% in test [1] and 14.2% in test [2].
`Cc1noc(C)c1NC(=O)Nc1ccc2c(c1)C(=O)N([C@H](C)CO)C[C@@H](C)[C@H](CN(C)C(=O)Nc1ccc3c(c1)OCO3)OCCCC[C@@H](C)O2`: the results for the activity change in test [1] and in test [2] were -17.1% and 9.01%, respectively.
Take `COc1ccccc1Cn1c(=S)[nH]c2ccccc2c1=O`: the activity change was -59.8% in test [1] and 31.8% in test [2].
As to `CS(=O)(=O)c1ccc(Cl)c(NC(=O)CSc2nncn2-c2ccccc2)c1`, the activity change in test [1] is -11.3%; in test [2], -19.8%.
For the compound `Cc1ccsc1C(=O)C1CCCN(Cc2cc(F)ccc2-n2cccn2)C1` (configuration not stated), the activity change in test [1] is -16%; in test [2] it was -21.7%.
The corresponding values for `Clc1ccc2nc(CN3CCCc4ccccc43)cn2c1` are -42.2% and -22.6%.
In the case of `O=C(CSc1nc2ccccc2[nH]1)Nc1ccccc1F`, the activity change in test [1] is -46.4%; in test [2], -4.15%.
On to `Cc1cc(C)cc(NC(=O)COC(=O)CC2CCCC2)c1`, for which the activity change in test [1] turned out to be 0.956%; in test [2] it was 35.4%.
The corresponding values for `Cc1cccc(Nc2nc(-c3ccc(F)cc3)cs2)n1` are -21.3% and -17.1%.
The corresponding values for `COc1ccc(-c2noc(=O)n2Cc2ccccc2Cl)cc1` are -18.2% and 5.85%.
On to `Cc1cc(C(=O)Nc2cccc3c2O[C@H](CN(C)S(=O)(=O)c2ccc(Cl)cc2)[C@H](C)CN([C@H](C)CO)C3=O)n(C)n1`, for which the activity change is -57.8% in test [1] and -37.8% in test [2].
`COc1ccccc1NS(=O)(=O)c1cc(C(=O)Nc2ccc(S(=O)(=O)Nc3onc(C)c3C)cc2)ccc1C`: the results for the activity change in test [1] and in test [2] were -38.7% and -45.6%, respectively.
`NCCNC(=O)c1c(NC(=O)c2ccccc2)sc2c1CCCC2`: the activity change in test [1] was -34.1%; in test [2], -31.7%.
In the case of `COc1ccccc1C1CCN(Cc2cccc([N+](=O)[O-])c2)CC1`, the activity change in test [1] is -9.75%; in test [2], 31.5%.
On the same counts, the results for `Cc1ccc(S(=O)(=O)NC(C)C(=O)NCc2ccc(Cl)cc2)cc1` (configuration not stated) are -9.75% and 16.3%.
For the compound `O=C(CN1CCCC1)Nc1ccccc1Sc1ccc(Cl)cc1`, the values for the activity change in test [1] and in test [2] were -68.3% and 29.3%, respectively.
As for `Cc1cccc(C(=O)NCC(=O)NCCSc2ccc(Br)cc2)c1`, the activity change in test [1] was -8.35%.
As for `CCC[N+]1(CC#CC(O)(c2ccccc2)C2CCCCC2)CCCCC1` (configuration not stated), the activity change is -10.7% in test [1] and -12.9% in test [2].
Turning to `C[n+]1ccccc1/C=C/c1cc(Br)ccc1O`, the activity change in test [1] is -10.6%; in test [2] it was 32%.
For the compound `O=C(NCc1ccccc1)c1ccc(-c2ccccc2F)o1`, the activity change in test [1] is -69.1%.
On to `COc1ccc(NC(=O)CSc2n[nH]c(-c3ccncc3)n2)c([N+](=O)[O-])c1`, for which the activity change in test [1] was -6.62%; in test [2] it was 17.5%.
`CC1CCCC(NC(=O)COC(=O)[C@@H]2CC(O)CN2S(=O)(=O)c2ccc3c(c2)OCCO3)C1C` (some centres not stated): the activity change in test [1] is -3.56%.
Regarding `O=C(C[C@H]1CC[C@@H]2[C@H](COC[C@@H](O)CN2C(=O)Nc2cc(Cl)cc(Cl)c2)O1)N1CCOCC1`, the activity change is -31% in test [1] and -12% in test [2].
The corresponding values for `Cc1ccc(C#N)c(SCc2ccccc2F)n1` are -74.7% and -1.16%.
With `CC1CCCN(C(=O)C(C)Nc2cc(Cl)ccc2N2CCOCC2)C1` (configuration not stated), the activity change is -40.1% in test [1] and -13.6% in test [2].
The corresponding values for `O=C(NCc1ccc(-c2nc3ccccc3s2)cc1)c1ccco1` are -37.2% and 26.5%.
On to `COc1ccccc1CNC(=O)CN1C(=O)NC(c2ccccc2)(c2ccccc2)C1=O`, for which the activity change was -36.6% in test [1] and -5.29% in test [2].
For the compound `CCOc1ccccc1OCCCC(=O)N1CCN(S(=O)(=O)c2cc(F)ccc2F)CC1`, the results for the activity change in test [1] and in test [2] were -33.8% and -20.6%, respectively.
As for `O=C(NCc1ccccc1Cl)c1ccc2c(c1)SC1=NS(=O)(=O)CCN12`, the activity change is -8.88% in test [1] and -27.3% in test [2].
With `O=c1[nH]c(C2CCN(S(=O)(=O)c3ccc4c(c3)OCCO4)CC2)nc2c1nnn2Cc1ccccc1F`, the activity change is -46.7% in test [1] and -25.6% in test [2].
On to `COc1cc(NC(=O)c2ccc([N+](=O)[O-])o2)ccc1NC(=O)c1ccco1`, for which the activity change in test [1] and in test [2] was -37.8% each time.
Regarding `COC(=O)c1ccc2nc(-c3ccc(F)cc3)c(Cc3cccc(F)c3)n2c1`, in test [1], the activity change is -6.52%.
With `CCc1nc2ccccc2c(C(=O)OCC(=O)NC(=O)c2cccn2C)c1C`, the activity change in test [1] is -2.77%.
As for `Cc1ccc(NC(=O)c2ccccc2F)c(NC(=O)c2ccccc2F)c1`, the activity change in test [1] was -31.7%; in test [2] it was -4.02%.
As for `CNC(=O)c1ccsc1NC(=O)c1ccc(S(=O)(=O)N2CCc3ccccc32)cc1`, in test [1], the activity change was -31.4%.
Take `CCOc1ccc2nc(SCC(=O)Nc3nonc3C)[nH]c2c1`: in test [1], the activity change is -13.9%.
Turning to `COc1ccc(NC(=O)Nc2cccc3c2O[C@@H](CN(C)S(=O)(=O)c2ccc(Cl)cc2)[C@H](C)CN([C@H](C)CO)C3=O)cc1`, the activity change in test [1] is -44.1%; in test [2] it was 5.12%.
For `COc1ccc(OC)c(NC(=O)CN(C)CC(=O)Nc2ccccc2Br)c1`, the activity change in test [1] is -31.5%; in test [2], -20.9%.
With `O=C(c1ccccc1)C1CN(Cc2ccccc2)CCC1(O)c1ccccc1` (configuration not stated), the figures for the activity change in test [1] and in test [2] were -26.7% and 16.3%, respectively.
The corresponding values for `COc1ccc(NC(=O)Nc2cccc3c2O[C@H](CN(C)S(=O)(=O)c2ccc(Cl)cc2)[C@H](C)CN([C@@H](C)CO)C3=O)cc1` are -82.1% and -32.2%.
